Some of the results follow.
biological target: T1, OsSMF1 (Oryza sativa, UniProt Q6ZLB0 1-436); assay: protein-binding microarray (RPBM); PBS, 2% BSA, 51.3 ng/ul salmon testes DNA, 50 uM zinc acetate, 200 nM TF, 25 C, 1 h; high values mean tight binding; conditions: protein: recombinant; tags: N-terminal polyhistidine and DsRed monomer fusion (pET32a); chain copies: 2; label: CyDye5-dUTP incorporated in the synthesized complementary strand; 3' TTTTT single-stranded linker to array surface; dsDNA, one strand shown
T1 sequence: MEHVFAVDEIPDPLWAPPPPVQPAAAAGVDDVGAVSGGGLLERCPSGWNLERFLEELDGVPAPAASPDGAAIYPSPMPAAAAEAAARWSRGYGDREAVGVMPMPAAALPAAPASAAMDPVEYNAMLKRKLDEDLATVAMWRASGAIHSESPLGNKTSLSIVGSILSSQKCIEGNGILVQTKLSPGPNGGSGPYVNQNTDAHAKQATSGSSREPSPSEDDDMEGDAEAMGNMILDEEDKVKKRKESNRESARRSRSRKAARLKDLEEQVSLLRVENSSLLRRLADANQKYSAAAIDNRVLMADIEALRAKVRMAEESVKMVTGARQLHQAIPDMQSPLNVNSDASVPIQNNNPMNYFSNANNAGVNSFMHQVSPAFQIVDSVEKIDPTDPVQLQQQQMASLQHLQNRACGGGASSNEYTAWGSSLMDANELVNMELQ
Summary of the method: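 Per-feature fluorescence intensity (arbitrary units), read on an Axon 4000B scanner, is the binding signal. Transcription factors carrying an N-terminal polyhistidine tag and DsRed fusion were expressed in E. coli BL21-CodonPlus and purified on Ni–NTA. A custom Agilent array, made double-stranded by primer extension with Cy5-dUTP and blocked with 2% BSA, was incubated with 200 nM protein in PBS, 2% BSA, salmon testes DNA and 50 µM zinc acetate at 25 °C for 1 h and then washed.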

Row | Sequence | binding signal
1 | AGATTAGTTTTCCCATATATTTCTTGTCAGTCGTCGTCATCGGAGTCACCTAGTGCAG | 3760 fluorescence intensity (a.u.)
2 | CCAGTACCACCACGTACGTCCACCACCACCTCCACCTCCGCGGAGTCACCTAGTGCAG | 4950 fluorescence intensity (a.u.)
3 | TGACCTACTTGCACTTATAATTTATAGTATTATGATGTGTCGGAGTCACCTAGTGCAG | 3290 fluorescence intensity (a.u.)
4 | GCAGATTCGCCGCTGCCACCGCATCCCGCCCACCCACCGCCGGAGTCACCTAGTGCAG | 4230 fluorescence intensity (a.u.)
5 | CTGGTGCTGCATCTACCTGATCCATCGTACCATTAATTAGCGGAGTCACCTAGTGCAG | 22900 fluorescence intensity (a.u.)
6 | GTCCGGCGACGGTTGCCGCGCCGGCTGCTCGCTGGCCATCCGGAGTCACCTAGTGCAG | 3270 fluorescence intensity (a.u.)
7 | GATGAAAGGTGAGGCCCACTGTCAGTGGCTCAGGCCTGTACGGAGTCACCTAGTGCAG | 15800 fluorescence intensity (a.u.)
8 | AATAGGTGCAACTATTGGTTGCTTAAGTGTGATCCTATCACGGAGTCACCTAGTGCAG | 3400 fluorescence intensity (a.u.)
9 | ATAAGAATATGGTATACATGTGTATTCATATGTTCAAACACGGAGTCACCTAGTGCAG | 3520 fluorescence intensity (a.u.)
10 | CCATGGATGCCGACGTCGTAATGGCTTCTCTCTCTGCTGTCGGAGTCACCTAGTGCAG | 3830 fluorescence intensity (a.u.)
11 | TCTCACTGTTACCGTACGCGACCACACTTTATATCGGACCCGGAGTCACCTAGTGCAG | 4010 fluorescence intensity (a.u.)
12 | GTAGAGGAACATTTTGTCCCTAGTCAGTTGAGTGTCAGGACGGAGTCACCTAGTGCAG | 3230 fluorescence intensity (a.u.)
13 | AAATTCCCACACACACACACACACACACACACACACACACCGGAGTCACCTAGTGCAG | 3330 fluorescence intensity (a.u.)
14 | GAAATTTTCTGCACGTACGTGTACGTGTATGCTCGTGCTGCGGAGTCACCTAGTGCAG | 5440 fluorescence intensity (a.u.)
15 | ACGGCTGCGGCTTCCTTGTGCGTCGTGACCCGCGCCCTGACGGAGTCACCTAGTGCAG | 3980 fluorescence intensity (a.u.)
16 | CGCGCGCGCGCACGTACGTACGCACGCGACACCGCCCACCCGGAGTCACCTAGTGCAG | 3200 fluorescence intensity (a.u.)
17 | GTCGTAGGTTAGGGCATAGCCGCGTAGGCGGCCAGCGGGGCGGAGTCACCTAGTGCAG | 4920 fluorescence intensity (a.u.)
18 | GGCCTGATGATGGAATGTGTCGGCTTAGGGATTGTAGTGTCGGAGTCACCTAGTGCAG | 3950 fluorescence intensity (a.u.)
19 | CTCCACACAGACACACATCCCACCCCACCCACATACACACCGGAGTCACCTAGTGCAG | 3610 fluorescence intensity (a.u.)
20 | CGCCAACACGACGCTGTGCCGTGGCGCGCCGACAATCATCCGGAGTCACCTAGTGCAG | 3600 fluorescence intensity (a.u.)
21 | TGATAACATGTTGTAAACTTCTCTAGGCATTACCAATATTCGGAGTCACCTAGTGCAG | 3440 fluorescence intensity (a.u.)
22 | AATTAAGGTAGGAGGAGTAGTTGCTTGCCTCCGTCCTGATCGGAGTCACCTAGTGCAG | 26800 fluorescence intensity (a.u.)
23 | CTTCCGTGCCCTAGCTTCCCACCCTTCCAGCGAGAGAACACGGAGTCACCTAGTGCAG | 3250 fluorescence intensity (a.u.)

Quoted from the entries so far for reference:
Row | Sequence | binding signal
4 | GCAGATTCGCCGCTGCCACCGCATCCCGCCCACCCACCGCCGGAGTCACCTAGTGCAG | 4230 fluorescence intensity (a.u.)
5 | CTGGTGCTGCATCTACCTGATCCATCGTACCATTAATTAGCGGAGTCACCTAGTGCAG | 22900 fluorescence intensity (a.u.)
6 | GTCCGGCGACGGTTGCCGCGCCGGCTGCTCGCTGGCCATCCGGAGTCACCTAGTGCAG | 3270 fluorescence intensity (a.u.)
7 | GATGAAAGGTGAGGCCCACTGTCAGTGGCTCAGGCCTGTACGGAGTCACCTAGTGCAG | 15800 fluorescence intensity (a.u.)

Reference: article PMC7819943, “Rice protein-binding microarrays: a tool to detect cis-acting elements near promoter regions in rice”
